Reference: paper PMC4805597
These are yes or no findings as the source states them, for the method shown. In cells and extracts the contact can be indirect.

Chains of the proteins cited; added tags and fusions are not shown.
UniProt O88704: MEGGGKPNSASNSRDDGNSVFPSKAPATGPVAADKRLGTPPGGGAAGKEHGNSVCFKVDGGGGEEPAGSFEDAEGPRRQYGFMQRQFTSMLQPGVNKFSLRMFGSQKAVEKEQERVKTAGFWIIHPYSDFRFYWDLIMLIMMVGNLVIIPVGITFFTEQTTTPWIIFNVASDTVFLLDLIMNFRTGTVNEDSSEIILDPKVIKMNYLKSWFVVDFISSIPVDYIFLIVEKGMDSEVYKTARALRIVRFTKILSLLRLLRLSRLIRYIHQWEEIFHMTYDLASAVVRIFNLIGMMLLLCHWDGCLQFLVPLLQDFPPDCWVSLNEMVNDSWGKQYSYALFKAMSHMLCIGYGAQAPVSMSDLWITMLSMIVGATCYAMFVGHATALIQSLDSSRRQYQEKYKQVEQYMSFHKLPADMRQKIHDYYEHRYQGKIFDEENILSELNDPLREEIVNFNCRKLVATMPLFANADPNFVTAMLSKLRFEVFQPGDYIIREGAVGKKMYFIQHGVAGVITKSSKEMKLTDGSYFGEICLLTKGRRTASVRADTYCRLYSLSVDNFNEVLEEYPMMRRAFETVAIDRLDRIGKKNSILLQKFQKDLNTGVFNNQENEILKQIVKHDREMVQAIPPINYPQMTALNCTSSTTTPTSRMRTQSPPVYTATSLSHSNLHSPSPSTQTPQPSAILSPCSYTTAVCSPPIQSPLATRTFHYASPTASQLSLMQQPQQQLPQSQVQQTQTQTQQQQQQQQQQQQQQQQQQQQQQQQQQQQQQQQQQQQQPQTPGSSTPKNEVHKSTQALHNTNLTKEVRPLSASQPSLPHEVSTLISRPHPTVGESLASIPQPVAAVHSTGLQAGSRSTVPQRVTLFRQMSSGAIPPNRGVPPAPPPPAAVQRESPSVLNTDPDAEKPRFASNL

Target: Cellular prion protein (mouse (endogenous in hippocampus)) (UniProt P04925)
Experiment: co-IP

## Hyperpolarization-activated cyclic nucleotide-gated channel subunit HCN1 (from UniProt O88704 1-910)
  binding: no binding

B1: Hyperpolarization-activated cyclic nucleotide-gated channel subunit HCN2 (protein, UniProt O88703 1-863)
chain: MDARGGGGRPGDSPGTTPAPGPPPPPPPPAPPQPQPPPAPPPNPTTPSHPESADEPGPRARLCSRDSACTPGAAKGGANGECGRGEPQCSPEGPARGPKVSFSCRGAASGPSAAEEAGSEEAGPAGEPRGSQASFLQRQFGALLQPGVNKFSLRMFGSQKAVEREQERVKSAGAWIIHPYSDFRFYWDFTMLLFMVGNLIIIPVGITFFKDETTAPWIVFNVVSDTFFLMDLVLNFRTGIVIEDNTEIILDPEKIKKKYLRTWFVVDFVSSIPVDYIFLIVEKGIDSEVYKTARALRIVRFTKILSLLRLLRLSRLIRYIHQWEEIFHMTYDLASAVMRICNLISMMLLLCHWDGCLQFLVPMLQDFPSDCWVSINNMVNHSWSELYSFALFKAMSHMLCIGYGRQAPESMTDIWLTMLSMIVGATCYAMFIGHATALIQSLDSSRRQYQEKYKQVEQYMSFHKLPADFRQKIHDYYEHRYQGKMFDEDSILGELNGPLREEIVNFNCRKLVASMPLFANADPNFVTAMLTKLKFEVFQPGDYIIREGTIGKKMYFIQHGVVSVLTKGNKEMKLSDGSYFGEICLLTRGRRTASVRADTYCRLYSLSVDNFNEVLEEYPMMRRAFETVAIDRLDRIGKKNSILLHKVQHDLSSGVFNNQENAIIQEIVKYDREMVQQAELGQRVGLFPPPPPPQVTSAIATLQQAVAMSFCPQVARPLVGPLALGSPRLVRRAPPGPLPPAASPGPPAASPPAAPSSPRAPRTSPYGVPGSPATRVGPALPARRLSRASRPLSASQPSLPHGVPAPSPAASARPASSSTPRLGPAPTARTAAPSPDRRDSASPGAASGLDPLDSARSRLSSNL
  binding: no binding
